Measurements reported in article doi:10.1101/2021.06.14.448173.

By UniProt entry, the sequences of proteins in these tests, tags left out. Where a name states a change or a piece, a line headed by the entry shows the natural chain unless it says otherwise.
UniProt Q8VXZ9: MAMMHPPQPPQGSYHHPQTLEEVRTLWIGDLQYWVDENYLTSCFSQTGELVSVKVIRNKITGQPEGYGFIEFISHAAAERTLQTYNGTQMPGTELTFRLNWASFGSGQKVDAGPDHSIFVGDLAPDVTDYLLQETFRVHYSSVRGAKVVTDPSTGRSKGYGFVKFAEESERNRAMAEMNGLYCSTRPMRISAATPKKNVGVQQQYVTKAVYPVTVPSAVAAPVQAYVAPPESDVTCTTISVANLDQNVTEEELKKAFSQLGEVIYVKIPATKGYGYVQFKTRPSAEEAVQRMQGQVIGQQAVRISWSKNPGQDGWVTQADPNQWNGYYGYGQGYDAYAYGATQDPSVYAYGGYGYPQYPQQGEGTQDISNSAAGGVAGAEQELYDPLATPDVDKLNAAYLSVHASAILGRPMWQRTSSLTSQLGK

Legend:
[1] = molecular target: T1, pre-mRNA-processing factor 39a (PRP39a), GAL4 DNA binding domain fusion (Arabidopsis thaliana) (UniProt Q93ZR3); assay: two-hybrid
T1 sequence: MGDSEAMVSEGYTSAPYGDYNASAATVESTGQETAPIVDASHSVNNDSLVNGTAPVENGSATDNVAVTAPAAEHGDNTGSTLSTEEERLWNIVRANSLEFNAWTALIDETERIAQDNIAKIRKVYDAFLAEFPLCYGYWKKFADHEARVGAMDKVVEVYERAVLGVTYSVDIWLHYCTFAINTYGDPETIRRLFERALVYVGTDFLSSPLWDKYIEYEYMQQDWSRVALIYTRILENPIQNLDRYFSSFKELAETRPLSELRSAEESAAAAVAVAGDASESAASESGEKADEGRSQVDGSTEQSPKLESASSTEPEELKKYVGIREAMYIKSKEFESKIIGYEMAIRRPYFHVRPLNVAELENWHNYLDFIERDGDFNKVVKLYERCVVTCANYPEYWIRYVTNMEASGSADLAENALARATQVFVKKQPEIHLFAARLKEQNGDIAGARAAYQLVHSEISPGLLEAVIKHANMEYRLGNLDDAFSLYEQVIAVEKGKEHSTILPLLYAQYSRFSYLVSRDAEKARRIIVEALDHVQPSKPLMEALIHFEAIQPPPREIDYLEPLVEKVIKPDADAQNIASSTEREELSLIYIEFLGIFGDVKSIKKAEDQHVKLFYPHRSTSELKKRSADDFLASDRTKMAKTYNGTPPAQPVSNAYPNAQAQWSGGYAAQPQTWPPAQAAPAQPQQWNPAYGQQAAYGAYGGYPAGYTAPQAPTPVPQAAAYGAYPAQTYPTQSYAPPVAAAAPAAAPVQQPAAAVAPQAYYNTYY

[2] = molecular target: RBP45d-5xc-Myc (Arabidopsis thaliana) (UniProt Q8VXZ9); assay: co-IP
[3] = molecular target: RNA BINDING PROTEIN 45d (RBP45d), GAL4 DNA binding domain fusion (Arabidopsis thaliana) (UniProt Q8VXZ9); assay: two-hybrid
[4] = molecular target: RNA BINDING PROTEIN 45d (RBP45d), GAL4 DNA binding domain fusion (Arabidopsis thaliana), Q8VXZ9; assay: two-hybrid; details: remark: other sources report otherwise

**Q.** For “RNA BINDING PROTEIN 45d (RBP45d), GAL4 activation domain fusion (from UniProt Q8VXZ9)”, which binding [1] is on record?
**A.** Its binding is “binds”.

B1: pre-mRNA-processing factor 39a (PRP39a), endogenous (protein, UniProt Q93ZR3 1-768)
chain: MGDSEAMVSEGYTSAPYGDYNASAATVESTGQETAPIVDASHSVNNDSLVNGTAPVENGSATDNVAVTAPAAEHGDNTGSTLSTEEERLWNIVRANSLEFNAWTALIDETERIAQDNIAKIRKVYDAFLAEFPLCYGYWKKFADHEARVGAMDKVVEVYERAVLGVTYSVDIWLHYCTFAINTYGDPETIRRLFERALVYVGTDFLSSPLWDKYIEYEYMQQDWSRVALIYTRILENPIQNLDRYFSSFKELAETRPLSELRSAEESAAAAVAVAGDASESAASESGEKADEGRSQVDGSTEQSPKLESASSTEPEELKKYVGIREAMYIKSKEFESKIIGYEMAIRRPYFHVRPLNVAELENWHNYLDFIERDGDFNKVVKLYERCVVTCANYPEYWIRYVTNMEASGSADLAENALARATQVFVKKQPEIHLFAARLKEQNGDIAGARAAYQLVHSEISPGLLEAVIKHANMEYRLGNLDDAFSLYEQVIAVEKGKEHSTILPLLYAQYSRFSYLVSRDAEKARRIIVEALDHVQPSKPLMEALIHFEAIQPPPREIDYLEPLVEKVIKPDADAQNIASSTEREELSLIYIEFLGIFGDVKSIKKAEDQHVKLFYPHRSTSELKKRSADDFLASDRTKMAKTYNGTPPAQPVSNAYPNAQAQWSGGYAAQPQTWPPAQAAPAQPQQWNPAYGQQAAYGAYGGYPAGYTAPQAPTPVPQAAAYGAYPAQTYPTQSYAPPVAAAAPAAAPVQQPAAAVAPQAYYNTYY
**Q.** Which binding [2] does the source give for B1 here?
**A.** The binding was “binds”.

B2: U1C, GAL4 activation domain fusion (protein, UniProt Q56XE4 1-207)
chain: MPRYYCDYCDTYLTHDSPSVRKQHNAGYKHKANVRIYYQQFEEQQTQSLIDQRIKEHLGQTGGYQQVGAVFNQHMLARPRPPMMLPPGSMPMGMRPPVLPRPMMPPQGYMPPPGVPQMMAPPGAPLPPPPQNGILRPPGMAPIPGQGGGPPGMAPIPGQGGGPPPNYNGLPPPPPYHTNPAAPPSGNFNNPNLNNPNPSAESPESNE
**Q.** B2 was tested. Which binding [3] did it give?
**A.** The binding was “binds”.

B3: U1-70K, GAL4 activation domain fusion, Q42404 1-427 (protein)
chain: MGDSGDPFLRNPNAAVQARAKVQNRANVLQLKLMGQSHPTGLTNNLLKLFEPRPPLEYKPPPEKRKCPPYTGMAQFVSNFAEPGDPEYAPPKPEVELPSQKRERIHKLRLEKGVEKAAEDLKKYDPNNDPNATGDPYKTLFVSRLNYESSESKIKREFESYGPIKRVHLVTDQLTNKPKGYAFIEYMHTRDMKAAYKQADGQKIDGRRVLVDVERGRTVPNWRPRRLGGGLGTSRVGGGEEIVGEQQPQGRTSQSEEPSRPREEREKSREKGKERERSRELSHEQPRERSRDRPREDKHHRDRDQGGRDRDRDSRRDRDRTRDRGDRDRRDRDRGRDRTSRDHDRDRSRKKERDYEGGEYEHEGGGRSRERDAEYRGEPEETRGYYEDDQGDTDRYSHRYDKMEEDDFRYEREYKRSKRSESREYVR
**Q.** Which binding [4] does the source give for B3 here?
**A.** The binding was “binds”.

These are yes or no findings as the source states them, for the method shown. Binding calls can cover weak binding; strength is not graded here. For some of these results: Tags and fused reporters may be left off the sequences shown. For some of these results: Binding seen in cells or lysates may run through a third protein.
